Some of the results follow.
target: T1, OsSMF1 (Oryza sativa, UniProt Q6ZLB0 1-436); test: protein-binding microarray (RPBM); PBS, 2% BSA, 51.3 ng/ul salmon testes DNA, 50 uM zinc acetate, 200 nM TF, 25 C, 1 h; high values mean tight binding; conditions: protein: recombinant; tags: N-terminal polyhistidine and DsRed monomer fusion (pET32a); chain copies: 2; label: CyDye5-dUTP incorporated in the synthesized complementary strand; 3' TTTTT single-stranded linker to array surface; dsDNA, one strand shown
T1 sequence: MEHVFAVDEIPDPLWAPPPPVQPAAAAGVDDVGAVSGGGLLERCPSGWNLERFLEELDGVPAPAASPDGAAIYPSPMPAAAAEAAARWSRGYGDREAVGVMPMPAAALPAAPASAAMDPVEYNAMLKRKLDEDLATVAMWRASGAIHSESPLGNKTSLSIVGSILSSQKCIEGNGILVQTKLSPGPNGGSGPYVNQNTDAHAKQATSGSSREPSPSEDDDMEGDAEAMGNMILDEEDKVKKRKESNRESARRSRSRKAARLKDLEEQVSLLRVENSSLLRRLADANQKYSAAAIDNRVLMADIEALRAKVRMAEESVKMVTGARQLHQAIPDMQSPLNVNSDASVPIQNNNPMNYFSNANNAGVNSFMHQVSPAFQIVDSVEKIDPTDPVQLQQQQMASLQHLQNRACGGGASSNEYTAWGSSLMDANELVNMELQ
How it was run: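 Per-feature fluorescence intensity (arbitrary units), read on an Axon 4000B scanner, is the binding signal. Transcription factors carrying an N-terminal polyhistidine tag and DsRed fusion were expressed in E. coli BL21-CodonPlus and purified on Ni–NTA. A custom Agilent array, made double-stranded by primer extension with Cy5-dUTP and blocked with 2% BSA, was incubated with 200 nM protein in PBS, 2% BSA, salmon testes DNA and 50 µM zinc acetate at 25 °C for 1 h and then washed.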

| Sequence | binding signal |
| --- | --- |
| TCACTAGCAACGATTGACGCAATCCGAAATCTGGGTCAGCCGGAGTCACCTAGTGCAG | 3890 fluorescence intensity (a.u.) |
| CGCCTCCGTAGTCGGATAGACCCACGATTTCCTAGTCATCCGGAGTCACCTAGTGCAG | 5210 fluorescence intensity (a.u.) |
| GACCCACATGGATCCCACATGTCAGGTATCCACGTCACCCCGGAGTCACCTAGTGCAG | 30800 fluorescence intensity (a.u.) |
| ACAGGAGCACCATCAACAGCTGACAACTTGGCATTGGTATCGGAGTCACCTAGTGCAG | 3680 fluorescence intensity (a.u.) |
| TTCTTTGTCCCGATACGAAATATTATGAAGTGTCTCGTTTCGGAGTCACCTAGTGCAG | 3200 fluorescence intensity (a.u.) |
| TCCTGCAGCCAAGAAACACTCACACGCACGCACAAAGCGACGGAGTCACCTAGTGCAG | 4170 fluorescence intensity (a.u.) |
| ATGTATTGTGTGCACGTGTGTGTCTGTGGAGCACGCATCTCGGAGTCACCTAGTGCAG | 3240 fluorescence intensity (a.u.) |
| TAAAATTACCGGCCCGGATGAAACAGTCACGCCTAACTACCGGAGTCACCTAGTGCAG | 3540 fluorescence intensity (a.u.) |
| CATCATTTATTGGCAGGTTGTTTGTGCAGTTGCTTGTTTTCGGAGTCACCTAGTGCAG | 13800 fluorescence intensity (a.u.) |
| AGCACAGAGCAGGAATGAAGTTTGGAGTCATGCCTACCAGCGGAGTCACCTAGTGCAG | 3180 fluorescence intensity (a.u.) |
| AAGGAAGTATACAATTCGGTCATTTTCAAATGGATTTCCTCGGAGTCACCTAGTGCAG | 34100 fluorescence intensity (a.u.) |
| ACGGCGGTGACGAGGGAAGGGGAGGCCGGCGTGGCGGCGCCGGAGTCACCTAGTGCAG | 3810 fluorescence intensity (a.u.) |
| ACAAGTCCATCATCACCGACATTTAGTCTTGTGTCATCAACGGAGTCACCTAGTGCAG | 4360 fluorescence intensity (a.u.) |
| AACAGTAGCCATTCCACACAAATAGTACGCCCTGTGCATGCGGAGTCACCTAGTGCAG | 3870 fluorescence intensity (a.u.) |
| CGTCCTCTGCCACGTCTTGTCGATTTGTCTTCCGTCAGCACGGAGTCACCTAGTGCAG | 11500 fluorescence intensity (a.u.) |
| CCAATCCTCGTATCTTGGGTAAGGTACCGAGGTGGTACCTCGGAGTCACCTAGTGCAG | 3360 fluorescence intensity (a.u.) |
| AGCAAATATTTACTGTAGTACTACACTGTCAAATCATGTACGGAGTCACCTAGTGCAG | 3610 fluorescence intensity (a.u.) |
| GAAGTCCAAGGCTGCGCCTACGTCACGCATGCGCGCATCGCGGAGTCACCTAGTGCAG | 10400 fluorescence intensity (a.u.) |
| TCCACTCCCTGTCGCGCGCCACGTCGCCTGCTGCCGCCCGCGGAGTCACCTAGTGCAG | 14300 fluorescence intensity (a.u.) |
| ACTTGGTAGTGCTAACTCTTAAATTTAACTTTAGAAATTGCGGAGTCACCTAGTGCAG | 12100 fluorescence intensity (a.u.) |
| TCGCGCGCGAGCGAAGCCGAGCATCAGCATCTCTCTCCCCCGGAGTCACCTAGTGCAG | 3290 fluorescence intensity (a.u.) |

| Sequence | binding signal |
| --- | --- |
| AAATCCTTGTCTTCCCACGCTGACGCTGCTGTGTCCAGGTCGGAGTCACCTAGTGCAG | 4530 fluorescence intensity (a.u.) |
| AACATGCTTGGAATTGGTCGCTCCGTCATCTACATTGTCACGGAGTCACCTAGTGCAG | 3630 fluorescence intensity (a.u.) |
| TAGTGTGCTGCGAACGTTCACTCTCACAACCAGTCAACCACGGAGTCACCTAGTGCAG | 3430 fluorescence intensity (a.u.) |
| CATTCACGTGCCACATCAACTTGATCACGAACTTTGAATACGGAGTCACCTAGTGCAG | 3210 fluorescence intensity (a.u.) |
| CGCATGGCGCGTGGCAAGCGGCGTCGCGACGTGTCGCTGGCGGAGTCACCTAGTGCAG | 3650 fluorescence intensity (a.u.) |
| TGGGTTGTTGCGTGTTACGATGACGGTTGCAAATCGTGTTCGGAGTCACCTAGTGCAG | 6000 fluorescence intensity (a.u.) |
| ATTCTGAATAACAAACTATAGATCATTCAAGTCACAACGACGGAGTCACCTAGTGCAG | 3350 fluorescence intensity (a.u.) |
| ACGCGCTGACGCACGGGCTCAGCTGCATCAGGTCGCACGACGGAGTCACCTAGTGCAG | 5680 fluorescence intensity (a.u.) |
| CGGAGATACCTCCGATGACCTGGGCCGTAAAAGGCCCATACGGAGTCACCTAGTGCAG | 3490 fluorescence intensity (a.u.) |
| AGAGAGAGAGATAGAGAGAGAGAGAGTGACACAAAACCCTCGGAGTCACCTAGTGCAG | 3310 fluorescence intensity (a.u.) |
| GGAAGATTAGTTTAATCCGACCCACGCATCGCCATGGACCCGGAGTCACCTAGTGCAG | 3170 fluorescence intensity (a.u.) |
| GAGCAGAGCTCTCCTTGATCAGGTCCAATATTCCAGTATGCGGAGTCACCTAGTGCAG | 4630 fluorescence intensity (a.u.) |
| ACAGTGGATCCCCGAATTGTCACGGCTGATGTAAGCATATCGGAGTCACCTAGTGCAG | 6040 fluorescence intensity (a.u.) |
| CCAGCCACCCAGGTGAATTGGACACGGACCTTCGATTTTCCGGAGTCACCTAGTGCAG | 3650 fluorescence intensity (a.u.) |
| CCGGCGTACGTCGTCAGCGTTCCAGCCCAAACACATTCCACGGAGTCACCTAGTGCAG | 3350 fluorescence intensity (a.u.) |
| GTCTCACCGTCGGACTTGTGGCCGAGCTCCCACGTCAGCTCGGAGTCACCTAGTGCAG | 22800 fluorescence intensity (a.u.) |
| TAAGCCTCTGATGAAACTGATGAAACTTGGAGGACTACTTCGGAGTCACCTAGTGCAG | 26600 fluorescence intensity (a.u.) |
| AACCATAATGTTTGTGACACATTAAGGGCCTGTTCACTTTCGGAGTCACCTAGTGCAG | 3660 fluorescence intensity (a.u.) |
| GCCGCCTCCCTTCTCGCAGCTCTGGTGACGCCTCCTGTCTCGGAGTCACCTAGTGCAG | 3530 fluorescence intensity (a.u.) |
| GAGAGATGGGGAGAGATCAAGAGGAAGAAGATCAGGGGTGCGGAGTCACCTAGTGCAG | 3160 fluorescence intensity (a.u.) |
| CCCTGCCGCCTGCGCCCATCTCCGTCATGCGAGCTGAAGGCGGAGTCACCTAGTGCAG | 3520 fluorescence intensity (a.u.) |

Quoted at random: 2 entries already listed.

| Sequence | binding signal |
| --- | --- |
| GCCGCCTCCCTTCTCGCAGCTCTGGTGACGCCTCCTGTCTCGGAGTCACCTAGTGCAG | 3530 fluorescence intensity (a.u.) |
| AACATGCTTGGAATTGGTCGCTCCGTCATCTACATTGTCACGGAGTCACCTAGTGCAG | 3630 fluorescence intensity (a.u.) |
